Source: PubChem BioAssay AID1259254 (NCATS, 2017)
Test: 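Genome-wide screen for genes that prevent DNA re-replication in cancer cells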 (primary screen). System: human HCT116 colorectal cancer cells. Knock-down reagent: single siRNA against human genes. Timing: 3 days. Detection: 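Nuclei stained with Hoechst and imaged; cell-cycle phase assigned by DNA content; G2 share scaled per plate, non-targeting siRNA 0%, GMNN siRNA 100%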. Scale: G2 robust z-score: higher = more G2 cells, more excess DNA replication. Call rule: 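An siRNA counts as active if its G2 robust z-score lies at least 5 MADs above the screen median; here such calls match roughly 38% of GMNN control or more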.
In all, the deposit lists about 59,000 reagents; below is an unselected part. About 1,550 of them (2.6%) count as active. 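G2 share is only a proxy for re-replication; each gene was hit by three separate siRNAs, and active genes were retested.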 Unmarked entries are inactive. The numbers tell different reagents against one gene apart. Further read-outs or replicates are left out here. Not given: the amount of reagent.

G2 robust z-score, by target gene and reagent
PPP1R1B: #1 1.33; #2 -1.64; #3 -1.03
RAB6A: #1 -1.02; #2 -0.771; #3 -0.434
ADAM32: #1 3.21; #2 5.1 (active); #3 -0.481
FAM219A: #1 0.43; #2 -1.13; #3 -0.0255
PPM1D: #1 0.387; #2 -0.712; #3 -0.346
LEF1: #1 0.1; #2 1.4; #3 0.277
ARL6IP1P2: #1 0.564; #2 -0.728; #3 -0.328
HTR1B: #1 -0.461; #2 -0.272; #3 4.75
SEC14L4: #1 -0.441; #2 -0.713; #3 2.4
PRDM11: #1 0.601; #2 2.31; #3 0.507
COX6A1: #1 -0.893; #2 -0.668; #3 -0.861
OR6C75: #1 -0.302; #2 1.25; #3 -0.0362
LYPD6B: #1 -0.701; #2 -1.01; #3 -0.223
ADI1: #1 -0.668; #2 -0.082; #3 1.84
IL13RA1: #1 3.52; #2 -0.244; #3 -0.634
MORN1: #1 -1.04; #2 -0.434; #3 -0.348

Look-ups from the list:
MORN1 #2, G2 robust z-score: -0.434
Value of ADAM32 #2 in “G2 robust z-score”: 5.1 (active)
Value of ARL6IP1P2 #2 under “G2 robust z-score”: -0.728
